Data taken from the supplement of paper PMC10849652.
Some of the results follow.

Chains of the proteins cited; added tags and fusions are not shown. Lines headed by an entry give the natural chain unless they say otherwise; changes in a name come on top.
UniProt Q86TA1: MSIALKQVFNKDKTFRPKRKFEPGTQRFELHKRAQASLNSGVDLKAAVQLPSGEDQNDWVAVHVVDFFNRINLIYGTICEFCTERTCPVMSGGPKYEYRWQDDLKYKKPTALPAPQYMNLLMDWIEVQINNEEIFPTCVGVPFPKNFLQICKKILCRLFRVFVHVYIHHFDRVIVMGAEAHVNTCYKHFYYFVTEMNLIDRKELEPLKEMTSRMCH
UniProt Q9Y4U1: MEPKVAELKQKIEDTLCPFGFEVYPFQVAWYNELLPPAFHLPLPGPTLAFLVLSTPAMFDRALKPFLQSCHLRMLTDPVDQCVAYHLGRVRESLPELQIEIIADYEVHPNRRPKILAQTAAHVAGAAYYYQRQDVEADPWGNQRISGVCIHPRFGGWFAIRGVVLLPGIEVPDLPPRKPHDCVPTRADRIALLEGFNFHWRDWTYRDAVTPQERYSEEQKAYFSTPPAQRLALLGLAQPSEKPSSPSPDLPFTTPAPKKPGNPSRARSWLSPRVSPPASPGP
UniProt Q9NZW5: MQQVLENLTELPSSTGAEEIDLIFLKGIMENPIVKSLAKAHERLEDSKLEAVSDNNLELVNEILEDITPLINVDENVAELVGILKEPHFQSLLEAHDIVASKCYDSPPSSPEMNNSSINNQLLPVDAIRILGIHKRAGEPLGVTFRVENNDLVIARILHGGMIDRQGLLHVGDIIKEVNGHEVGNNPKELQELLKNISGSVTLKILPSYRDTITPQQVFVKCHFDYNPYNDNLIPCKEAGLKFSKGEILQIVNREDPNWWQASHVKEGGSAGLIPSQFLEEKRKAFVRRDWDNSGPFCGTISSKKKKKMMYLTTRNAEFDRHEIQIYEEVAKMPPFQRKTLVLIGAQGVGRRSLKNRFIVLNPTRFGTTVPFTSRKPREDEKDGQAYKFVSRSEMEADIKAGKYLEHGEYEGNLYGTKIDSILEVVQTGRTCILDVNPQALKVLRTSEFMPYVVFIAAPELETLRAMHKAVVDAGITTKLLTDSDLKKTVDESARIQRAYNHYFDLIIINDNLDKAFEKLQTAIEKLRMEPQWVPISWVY
UniProt P40692: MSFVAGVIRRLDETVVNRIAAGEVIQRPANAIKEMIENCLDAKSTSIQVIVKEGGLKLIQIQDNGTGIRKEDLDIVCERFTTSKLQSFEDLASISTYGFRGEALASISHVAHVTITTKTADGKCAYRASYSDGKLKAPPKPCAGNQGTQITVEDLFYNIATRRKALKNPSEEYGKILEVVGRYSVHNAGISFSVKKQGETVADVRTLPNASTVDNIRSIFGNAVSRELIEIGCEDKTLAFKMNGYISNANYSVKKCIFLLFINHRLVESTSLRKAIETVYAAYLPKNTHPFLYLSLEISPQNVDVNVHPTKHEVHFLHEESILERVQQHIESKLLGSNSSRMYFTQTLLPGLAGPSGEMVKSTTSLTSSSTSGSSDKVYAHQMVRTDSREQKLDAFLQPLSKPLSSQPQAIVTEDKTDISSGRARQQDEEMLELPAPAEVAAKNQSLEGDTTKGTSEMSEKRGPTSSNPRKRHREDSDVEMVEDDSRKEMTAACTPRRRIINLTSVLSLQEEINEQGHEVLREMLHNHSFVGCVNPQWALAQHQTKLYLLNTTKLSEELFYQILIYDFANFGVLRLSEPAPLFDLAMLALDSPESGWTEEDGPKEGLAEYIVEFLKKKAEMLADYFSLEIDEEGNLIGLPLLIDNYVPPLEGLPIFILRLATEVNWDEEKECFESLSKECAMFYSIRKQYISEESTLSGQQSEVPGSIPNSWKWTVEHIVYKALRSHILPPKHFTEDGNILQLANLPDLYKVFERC
UniProt Q15773: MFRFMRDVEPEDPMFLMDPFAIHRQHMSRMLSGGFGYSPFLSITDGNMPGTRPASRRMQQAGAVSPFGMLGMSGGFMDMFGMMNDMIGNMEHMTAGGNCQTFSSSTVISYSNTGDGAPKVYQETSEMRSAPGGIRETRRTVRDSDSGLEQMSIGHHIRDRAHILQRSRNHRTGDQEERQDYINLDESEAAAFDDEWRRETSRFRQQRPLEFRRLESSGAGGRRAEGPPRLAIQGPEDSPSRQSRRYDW
UniProt Q8N3F8: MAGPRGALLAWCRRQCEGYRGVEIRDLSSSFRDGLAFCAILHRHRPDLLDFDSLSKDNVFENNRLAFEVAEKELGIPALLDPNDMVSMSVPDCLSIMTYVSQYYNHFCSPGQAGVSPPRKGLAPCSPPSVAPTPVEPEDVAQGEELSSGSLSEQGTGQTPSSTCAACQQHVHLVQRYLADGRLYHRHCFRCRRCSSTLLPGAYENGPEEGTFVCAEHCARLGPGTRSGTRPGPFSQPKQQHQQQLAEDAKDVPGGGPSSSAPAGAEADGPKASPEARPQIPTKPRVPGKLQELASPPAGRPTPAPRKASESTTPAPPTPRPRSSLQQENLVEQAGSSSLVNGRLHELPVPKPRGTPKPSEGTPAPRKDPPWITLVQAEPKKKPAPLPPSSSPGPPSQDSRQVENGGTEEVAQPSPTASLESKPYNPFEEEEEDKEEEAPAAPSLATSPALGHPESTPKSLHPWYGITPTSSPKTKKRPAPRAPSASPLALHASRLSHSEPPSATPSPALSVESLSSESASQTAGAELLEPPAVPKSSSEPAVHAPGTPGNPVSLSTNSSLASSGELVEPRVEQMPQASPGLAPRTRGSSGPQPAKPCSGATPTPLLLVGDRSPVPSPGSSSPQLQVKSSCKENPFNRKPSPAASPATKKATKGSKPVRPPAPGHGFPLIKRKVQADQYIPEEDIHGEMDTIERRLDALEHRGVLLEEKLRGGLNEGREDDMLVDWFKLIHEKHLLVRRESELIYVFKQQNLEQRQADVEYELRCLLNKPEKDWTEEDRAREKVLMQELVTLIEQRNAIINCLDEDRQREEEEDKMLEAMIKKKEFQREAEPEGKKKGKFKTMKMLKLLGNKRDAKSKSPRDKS
UniProt Q5JRA6: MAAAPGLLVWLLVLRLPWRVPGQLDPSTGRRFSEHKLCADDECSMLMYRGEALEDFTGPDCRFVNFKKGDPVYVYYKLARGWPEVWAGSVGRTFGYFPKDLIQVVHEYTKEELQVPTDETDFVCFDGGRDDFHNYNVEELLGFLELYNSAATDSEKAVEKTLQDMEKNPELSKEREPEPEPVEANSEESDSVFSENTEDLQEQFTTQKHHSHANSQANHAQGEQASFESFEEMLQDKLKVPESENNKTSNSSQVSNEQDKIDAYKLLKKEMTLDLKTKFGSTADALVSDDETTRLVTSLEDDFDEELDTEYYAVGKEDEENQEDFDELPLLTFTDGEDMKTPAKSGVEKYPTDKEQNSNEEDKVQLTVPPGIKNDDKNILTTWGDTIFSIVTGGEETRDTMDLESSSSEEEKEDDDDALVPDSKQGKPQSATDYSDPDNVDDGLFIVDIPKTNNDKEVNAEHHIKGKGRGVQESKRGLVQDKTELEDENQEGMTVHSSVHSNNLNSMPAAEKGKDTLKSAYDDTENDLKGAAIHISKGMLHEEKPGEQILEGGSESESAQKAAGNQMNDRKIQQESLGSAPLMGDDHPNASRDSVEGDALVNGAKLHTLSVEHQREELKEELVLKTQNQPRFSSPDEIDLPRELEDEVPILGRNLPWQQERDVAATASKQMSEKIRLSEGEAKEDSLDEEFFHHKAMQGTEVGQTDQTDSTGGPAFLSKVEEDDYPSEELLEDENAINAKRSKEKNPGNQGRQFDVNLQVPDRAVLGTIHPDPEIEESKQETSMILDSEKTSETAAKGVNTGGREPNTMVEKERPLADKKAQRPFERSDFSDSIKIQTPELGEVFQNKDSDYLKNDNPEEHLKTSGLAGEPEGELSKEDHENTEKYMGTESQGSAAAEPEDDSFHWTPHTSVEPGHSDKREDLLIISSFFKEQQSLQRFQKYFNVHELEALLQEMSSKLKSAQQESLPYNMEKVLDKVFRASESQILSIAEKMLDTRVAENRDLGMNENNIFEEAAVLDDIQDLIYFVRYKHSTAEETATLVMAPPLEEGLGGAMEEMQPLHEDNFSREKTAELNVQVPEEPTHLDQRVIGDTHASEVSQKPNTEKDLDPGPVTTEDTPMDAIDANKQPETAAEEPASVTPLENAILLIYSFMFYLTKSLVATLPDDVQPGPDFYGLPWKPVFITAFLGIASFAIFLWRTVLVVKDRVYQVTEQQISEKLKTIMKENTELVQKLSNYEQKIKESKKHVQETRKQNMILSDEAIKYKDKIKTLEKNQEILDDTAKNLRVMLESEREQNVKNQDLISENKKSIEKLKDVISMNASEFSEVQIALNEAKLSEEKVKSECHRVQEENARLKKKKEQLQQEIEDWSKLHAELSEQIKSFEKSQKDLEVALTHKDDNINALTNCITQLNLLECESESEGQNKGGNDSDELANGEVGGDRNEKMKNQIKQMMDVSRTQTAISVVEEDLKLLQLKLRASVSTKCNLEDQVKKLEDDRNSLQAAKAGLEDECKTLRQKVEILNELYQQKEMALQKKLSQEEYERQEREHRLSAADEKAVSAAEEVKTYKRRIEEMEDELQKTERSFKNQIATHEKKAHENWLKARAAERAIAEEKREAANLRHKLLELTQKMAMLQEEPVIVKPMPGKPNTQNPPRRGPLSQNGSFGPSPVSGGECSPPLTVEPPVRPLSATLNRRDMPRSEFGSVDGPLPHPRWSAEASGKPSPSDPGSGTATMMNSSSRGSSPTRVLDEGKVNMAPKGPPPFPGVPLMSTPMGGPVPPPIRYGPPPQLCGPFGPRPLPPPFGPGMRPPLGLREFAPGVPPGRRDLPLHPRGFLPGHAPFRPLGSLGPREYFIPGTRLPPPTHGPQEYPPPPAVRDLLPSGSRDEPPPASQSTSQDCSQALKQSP
UniProt Q9UBU8, whole entry, looked up: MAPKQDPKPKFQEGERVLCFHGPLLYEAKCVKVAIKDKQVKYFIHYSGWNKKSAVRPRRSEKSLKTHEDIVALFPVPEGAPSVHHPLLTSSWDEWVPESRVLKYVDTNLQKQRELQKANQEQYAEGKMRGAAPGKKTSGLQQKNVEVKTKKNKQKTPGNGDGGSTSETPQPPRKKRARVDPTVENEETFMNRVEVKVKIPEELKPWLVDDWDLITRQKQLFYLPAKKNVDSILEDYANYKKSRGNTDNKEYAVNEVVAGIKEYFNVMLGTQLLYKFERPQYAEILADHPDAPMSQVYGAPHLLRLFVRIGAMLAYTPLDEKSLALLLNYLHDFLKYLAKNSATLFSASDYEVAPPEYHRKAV
UniProt Q03111: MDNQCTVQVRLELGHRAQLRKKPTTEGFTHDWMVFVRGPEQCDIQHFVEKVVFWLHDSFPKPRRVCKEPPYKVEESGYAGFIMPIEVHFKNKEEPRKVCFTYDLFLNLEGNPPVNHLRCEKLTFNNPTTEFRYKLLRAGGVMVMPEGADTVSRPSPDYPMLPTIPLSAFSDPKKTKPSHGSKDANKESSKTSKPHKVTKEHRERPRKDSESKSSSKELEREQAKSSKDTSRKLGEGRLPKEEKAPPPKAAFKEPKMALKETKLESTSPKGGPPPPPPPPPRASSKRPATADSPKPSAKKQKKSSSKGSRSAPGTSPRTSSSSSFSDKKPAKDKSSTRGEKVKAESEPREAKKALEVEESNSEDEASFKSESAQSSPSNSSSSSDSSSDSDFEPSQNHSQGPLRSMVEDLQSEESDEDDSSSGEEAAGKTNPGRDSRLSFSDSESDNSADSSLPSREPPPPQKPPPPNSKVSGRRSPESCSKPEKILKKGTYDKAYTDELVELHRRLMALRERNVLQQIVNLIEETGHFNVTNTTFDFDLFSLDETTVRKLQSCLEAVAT
UniProt Q15014, whole entry, looked up: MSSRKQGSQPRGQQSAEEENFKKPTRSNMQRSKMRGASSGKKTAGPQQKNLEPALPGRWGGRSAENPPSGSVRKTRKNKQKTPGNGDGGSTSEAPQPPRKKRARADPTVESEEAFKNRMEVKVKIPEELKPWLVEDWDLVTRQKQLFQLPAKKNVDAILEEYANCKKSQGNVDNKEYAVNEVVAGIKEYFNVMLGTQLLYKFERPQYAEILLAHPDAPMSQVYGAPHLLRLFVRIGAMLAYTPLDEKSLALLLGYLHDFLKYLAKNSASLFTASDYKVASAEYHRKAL
UniProt Q9H8M7: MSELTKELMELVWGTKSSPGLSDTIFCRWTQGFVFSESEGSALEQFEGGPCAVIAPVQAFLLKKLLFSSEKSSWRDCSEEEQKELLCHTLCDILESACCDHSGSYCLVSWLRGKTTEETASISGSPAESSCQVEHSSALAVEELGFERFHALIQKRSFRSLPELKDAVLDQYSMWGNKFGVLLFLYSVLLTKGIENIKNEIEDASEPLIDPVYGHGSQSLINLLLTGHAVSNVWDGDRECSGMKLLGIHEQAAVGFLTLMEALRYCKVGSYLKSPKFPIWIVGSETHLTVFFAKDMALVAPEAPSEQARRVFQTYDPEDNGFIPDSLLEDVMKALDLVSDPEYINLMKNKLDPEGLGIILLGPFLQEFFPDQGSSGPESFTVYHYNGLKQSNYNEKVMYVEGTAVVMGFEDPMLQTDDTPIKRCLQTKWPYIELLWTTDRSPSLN
UniProt Q5XKP0: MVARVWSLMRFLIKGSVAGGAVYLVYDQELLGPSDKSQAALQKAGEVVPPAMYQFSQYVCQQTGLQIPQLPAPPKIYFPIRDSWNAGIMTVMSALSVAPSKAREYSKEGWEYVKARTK

How the values were obtained:
Experiment in all cases: log2 fold change, soluble protein after heating vs DMSO (PISA); higher = thermal stabilisation; K562 lysate, 10 uM; active = over 0.2 and 3.5 SD of the protein, either way, in both replicates (recomputed)
[1] = compound: C1=CC=C(C=C1)[C@H](COC2=CC3=C(C=C2)NC(=O)N3)NC(=O)C4=CC=CN(C4=O)CC5=CC(=C(C=C5)F)F
Outline: (§1)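 A 30 min treatment with 10 μM compound was applied to crude K562 extract at 1 mg/mL protein in PBS pH 7.4 with 1 mM MgCl2. Heating for 3 min spanned 48°C-58°C, after which aliquots were pooled, adjusted to 0.5% NP-40 at 4°C and spun at 21,000xg for 90 min. TMTpro 16plex LC-MS/MS of the supernatant, with channel sums equalised, gave values recorded as log-two fold change in thermal stability against solvent controls, from duplicates.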

[2] = compound: CC1=C(SC2=C1C(=N[C@H](C3=NN=C(N32)C)CC(=O)N)C4=CC=C(C=C4)Cl)C
Outline: as §1

[3] = compound: CC1=C2C(=CC=C1)N=C(N(C2=O)C3=CC=CC=C3C)CN4C=NC5=C(N=CN=C54)N
Outline: as §1

[4] = compound: Cc1sc2c(c1C)C(c1ccc(Cl)cc1)=N[C@@H](CC(=O)OC(C)(C)C)c1nnc(C)n1-2
Outline: as §1

[5] = compound: c1ccc([C@@H]2C[C@H]2NC2CCNCC2)cc1
Outline: as §1

Measured: log2 fold change

MIF (UniProt P14174)
inactive: [1] 0.046 | [2] 0.022 | [3] -0.043 | [4] -0.013 | [5] -0.09

MOB3B (UniProt Q86TA1)
inactive: [1] -0.061 | [2] 0.157 | [3] 0.187 | [4] 0.013 | [5] -0.014

MMACHC (UniProt Q9Y4U1)
inactive: [1] 0.082 | [2] -0.221 | [3] -0.011 | [4] 0.073 | [5] 0.131

MPHOSPH10 (UniProt O00566)
inactive: [1] 0.036 | [2] 0.001 | [3] -0.019 | [4] 0.029 | [5] 0.04

MIOS (UniProt Q9NXC5)
inactive: [1] -0.006 | [2] -0.019 | [3] 0 | [4] -0.014 | [5] -0.037

MPP6 (UniProt Q9NZW5)
inactive: [1] -0.002 | [2] 0.038 | [3] 0.036 | [4] -0.049 | [5] 0.005

MRM3 (UniProt Q9HC36)
inactive: [1] -0.037 | [2] 0.023 | [3] 0.054 | [4] 0.05 | [5] -0.161

MLH1 (UniProt P40692)
inactive: [1] -0.038 | [2] -0.006 | [3] 0.006 | [4] -0.012 | [5] 0.019

MLF2 (UniProt Q15773)
inactive: [1] 0.031 | [2] 0.076 | [3] 0.015 | [4] 0.059 | [5] -0.013

MIA2 (UniProt Q96PC5)
inactive: [1] -0.072 | [2] -0.037 | [3] -0.013 | [4] -0.031 | [5] 0.095

MPHOSPH8 (UniProt Q99549)
inactive: [1] 0.218 | [2] -0.134 | [3] -0.02 | [4] -0.011 | [5] -0.099

MOB2 isoform 3 (UniProt Q70IA6)
inactive: [1] -0.099 | [2] -0.116 | [3] 0.127 | [4] 0.067 | [5] 0.044

MGA (UniProt Q8IWI9)
inactive: [1] -0.044 | [2] 0.134 | [3] 0.152 | [4] -0.225 | [5] -0.078

MPRIP isoform 2 (UniProt Q6WCQ1)
inactive: [1] -0.06 | [2] 0.034 | [3] 0.054 | [4] -0.072 | [5] -0.033

MRE11 isoform 3 (UniProt P49959)
inactive: [1] 0.015 | [2] 0.005 | [3] 0.023 | [4] 0.099 | [5] -0.023

MITD1 (UniProt Q8WV92)
inactive: [1] -0.036 | [2] -0.038 | [3] -0.015 | [4] -0.026 | [5] 0.117

MNX1 (UniProt P50219)
inactive: [1] -0.052 | [2] -0.076 | [3] 0.177 | [4] 0.012 | [5] 0.03

MPI (UniProt P34949)
inactive: [1] 0.023 | [2] -0.014 | [3] 0.033 | [4] -0.023 | [5] 0.083

MORC2 (UniProt Q9Y6X9)
inactive: [1] -0.068 | [2] 0.043 | [3] 0.049 | [4] -0.014 | [5] 0.018

MICALL1 (UniProt Q8N3F8)
inactive: [1] 0.031 | [2] 0.023 | [3] 0.049 | [4] -0.046 | [5] 0.018

MPHOSPH6 (UniProt Q99547)
inactive: [1] 0.006 | [2] 0.012 | [3] 0.056 | [4] -0.103 | [5] 0.002

MGST1 (UniProt P10620)
inactive: [1] -0.08 | [2] 0.005 | [3] 0 | [4] -0.056 | [5] 0.022

MNAT1 (UniProt P51948)
inactive: [1] 0.077 | [2] -0.007 | [3] 0.017 | [4] -0.053 | [5] -0.063

MIA3 (UniProt Q5JRA6)
inactive: [1] -0.004 | [2] -0.023 | [3] 0.053 | [4] -0.009 | [5] 0.019

MPP1 (UniProt Q00013)
inactive: [1] -0.01 | [2] 0.006 | [3] 0.024 | [4] 0.016 | [5] 0.044

MLX (UniProt Q9UH92)
inactive: [1] -0.123 | [2] -0.002 | [3] 0.063 | [4] -0.008 | [5] 0.023

MICALL2 (UniProt Q8IY33)
inactive: [1] -0.014 | [2] 0.026 | [3] 0.03 | [4] -0.05 | [5] -0.006

MORF4L1 isoform 2 (UniProt Q9UBU8)
inactive: [1] 0.012 | [2] -0.03 | [3] -0.029 | [4] -0.041 | [5] -0.035

MGAT4B isoform 3 (UniProt Q9UQ53)
inactive: [1] -0.163 | [2] 0.041 | [3] -0.135 | [4] 0.074 | [5] 0.049

MPLKIP (UniProt Q8TAP9)
inactive: [1] 0.153 | [2] -0.062 | [3] -0.045 | [4] -0.292 | [5] -0.028

MLLT1 (UniProt Q03111)
inactive: [1] 0.023 | [2] 0.046 | [3] -0.15 | [4] 0.048 | [5] -0.013

MPV17L2 (UniProt Q567V2)
inactive: [1] -0.014 | [2] 0.047 | [3] -0.175 | [4] -0.017 | [5] -0.025

MMUT (UniProt P22033)
inactive: [1] -0.008 | [2] 0.051 | [3] 0.021 | [4] 0.012 | [5] 0.03

MICU1 isoform 3 (UniProt Q9BPX6)
inactive: [1] -0.018 | [2] 0.027 | [3] -0.035 | [4] -0.043 | [5] 0.196

MORF4L2 (UniProt Q15014)
inactive: [1] 0.044 | [2] 0.01 | [3] 0.015 | [4] -0.024 | [5] -0.021

Fetched one by one from above (two):
MMUT (UniProt P22033)
inactive: [1] -0.008 | [2] 0.051 | [3] 0.021 | [4] 0.012 | [5] 0.03

MICALL2 (UniProt Q8IY33)
inactive: [1] -0.014 | [2] 0.026 | [3] 0.03 | [4] -0.05 | [5] -0.006

The listing continues.

MKRN2 (UniProt Q9H000)
inactive: [1] -0.015 | [2] 0.001 | [3] 0.034 | [4] 0.036 | [5] 0.077

MRPL11 (UniProt Q9Y3B7)
inactive: [1] -0.072 | [2] 0.036 | [3] -0.003 | [4] 0.017 | [5] 0.011

MOB4 (UniProt Q9Y3A3)
inactive: [1] 0.028 | [2] 0 | [3] 0.03 | [4] 0.009 | [5] -0.086

MND1 (UniProt Q9BWT6)
inactive: [1] 0.053 | [2] -0.013 | [3] -0.009 | [4] 0.024 | [5] 0.042

MGAT5 (UniProt Q09328)
inactive: [1] 0.088 | [2] -0.027 | [3] -0.171 | [4] 0.017 | [5] 0.083

MRPL15 (UniProt Q9P015)
inactive: [1] -0.016 | [2] 0.04 | [3] 0.003 | [4] 0.04 | [5] -0.212

MRPL21 (UniProt Q7Z2W9)
inactive: [1] -0.004 | [2] 0.081 | [3] 0.049 | [4] 0.031 | [5] 0

MRPL2 (UniProt Q5T653)
inactive: [1] 0.052 | [2] 0.025 | [3] -0.171 | [4] -0.069 | [5] -0.037

MINPP1 (UniProt Q9UNW1)
inactive: [1] 0.084 | [2] 0.014 | [3] 0.046 | [4] 0.006 | [5] 0.028

MINDY3 (UniProt Q9H8M7)
inactive: [1] 0.01 | [2] 0.004 | [3] 0.029 | [4] 0.072 | [5] 0.026

MKRN3 (UniProt Q13064)
inactive: [1] 0.028 | [2] 0.049 | [3] -0.085 | [4] 0.06 | [5] -0.013

MMS22L (UniProt Q6ZRQ5)
inactive: [1] -0.062 | [2] -0.027 | [3] -0.038 | [4] 0.07 | [5] 0.11

MKKS (UniProt Q9NPJ1)
inactive: [1] -0.024 | [2] -0.07 | [3] 0.066 | [4] -0.19 | [5] 0.206

MGST2 (UniProt Q99735)
inactive: [1] 0.038 | [2] -0.062 | [3] -0.016 | [4] -0.025 | [5] -0.136

MICOS13 (UniProt Q5XKP0)
inactive: [1] -0.149 | [2] 0.055 | [3] 0.052 | [4] 0.045 | [5] 0.05

MRPL17 (UniProt Q9NRX2)
inactive: [1] 0.054 | [2] 0.008 | [3] -0.034 | [4] 0.049 | [5] 0.059

MIER1 isoform 12 (UniProt Q8N108)
inactive: [1] 0.043 | [2] 0.001 | [3] -0.001 | [4] -0.005 | [5] -0.013

MGST3 (UniProt O14880)
inactive: [1] 0.003 | [2] -0.033 | [3] -0.008 | [4] -0.072 | [5] 0.056
